Test results taken from paper PMC10709558.
No constants are given. Whether binding was seen depends on the method and setting. In cells and extracts the contact can be indirect. Some results given as binding are weak or reduced against the parent protein; the word gives no strength.

The chains behind the UniProt entries cited, without tags or fusion partners. Where a name states a change or a piece, a line headed by the entry shows the natural chain unless it says otherwise.
UniProt P05556: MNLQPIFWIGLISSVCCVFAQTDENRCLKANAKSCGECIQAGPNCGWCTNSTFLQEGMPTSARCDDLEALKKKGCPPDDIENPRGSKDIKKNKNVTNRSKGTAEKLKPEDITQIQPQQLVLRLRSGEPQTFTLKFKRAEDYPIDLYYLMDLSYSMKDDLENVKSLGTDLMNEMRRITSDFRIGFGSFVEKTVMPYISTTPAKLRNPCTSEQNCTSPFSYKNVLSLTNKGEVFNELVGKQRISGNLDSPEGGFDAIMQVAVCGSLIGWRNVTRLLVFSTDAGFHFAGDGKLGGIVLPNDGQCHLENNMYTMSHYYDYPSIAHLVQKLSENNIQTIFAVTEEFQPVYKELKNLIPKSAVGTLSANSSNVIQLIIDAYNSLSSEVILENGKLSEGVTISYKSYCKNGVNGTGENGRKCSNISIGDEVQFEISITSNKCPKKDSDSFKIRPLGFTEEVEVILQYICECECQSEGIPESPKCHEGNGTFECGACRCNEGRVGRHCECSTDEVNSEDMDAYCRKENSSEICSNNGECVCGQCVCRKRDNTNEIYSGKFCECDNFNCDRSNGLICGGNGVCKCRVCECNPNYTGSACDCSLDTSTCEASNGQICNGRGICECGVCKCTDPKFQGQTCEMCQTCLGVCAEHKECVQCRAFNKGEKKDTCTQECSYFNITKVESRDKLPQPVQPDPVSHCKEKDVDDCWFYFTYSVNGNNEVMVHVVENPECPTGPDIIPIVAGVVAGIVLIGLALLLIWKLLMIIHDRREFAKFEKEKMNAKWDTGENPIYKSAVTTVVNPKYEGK

Target: T1, Kinesin Family Member 3B (human (endogenous in ESCC cells)) (UniProt O15066)
T1 sequence: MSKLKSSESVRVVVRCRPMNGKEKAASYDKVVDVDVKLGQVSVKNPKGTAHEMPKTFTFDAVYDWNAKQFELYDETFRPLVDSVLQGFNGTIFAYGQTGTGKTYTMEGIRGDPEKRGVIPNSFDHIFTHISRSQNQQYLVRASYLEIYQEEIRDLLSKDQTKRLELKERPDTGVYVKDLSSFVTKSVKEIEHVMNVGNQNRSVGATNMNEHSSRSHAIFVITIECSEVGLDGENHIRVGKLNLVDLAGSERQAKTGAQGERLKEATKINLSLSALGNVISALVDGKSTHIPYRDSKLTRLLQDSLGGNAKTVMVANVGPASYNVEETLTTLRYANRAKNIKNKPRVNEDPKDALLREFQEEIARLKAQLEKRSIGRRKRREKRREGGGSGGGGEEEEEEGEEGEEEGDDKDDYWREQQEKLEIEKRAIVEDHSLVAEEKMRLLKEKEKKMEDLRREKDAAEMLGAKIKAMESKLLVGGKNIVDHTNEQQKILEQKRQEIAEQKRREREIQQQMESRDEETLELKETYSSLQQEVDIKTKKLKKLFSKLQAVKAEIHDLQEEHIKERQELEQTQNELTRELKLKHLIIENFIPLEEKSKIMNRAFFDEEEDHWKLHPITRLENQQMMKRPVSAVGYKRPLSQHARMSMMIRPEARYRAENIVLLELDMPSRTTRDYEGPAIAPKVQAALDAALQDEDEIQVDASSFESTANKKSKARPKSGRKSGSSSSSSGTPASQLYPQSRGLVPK
Test: co-IP; IP in ESCC cell lysates, detected by Western blot

binding: binds
Substance: Integrin-beta1 (from UniProt P05556 21-798) (receptor)
